Laboratory results taken from the supplement of paper PMC10338343.
± gives the standard deviation. The list shows a part of the results, in another mix than the full data. Many of these values have a large error. Some of the results follow.

Legend:
[1] = tested on: MILI (PIWIL2) piRISC loaded with L1MC piRNA (26 nt); assay: pre-steady-state target cleavage rate (min^-1); higher = faster piRNA-guided slicing of the target; conditions: guide: L1MC piRNA 5'p-UAACUAAAUACUAUGCAAGCUGUAGG;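 also: 1 nM active piRISC with 0.1 nM target library at 33 °C single turnover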
Outline: (§1)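 A transcribed, DNA-blocked target RNA library […] was incubated at 33 °C for 0–8 or 0–960 min with 1 nM active affinity-purified piRISC carrying one synthetic guide, in HEPES–potassium acetate buffer with or without 500 nM GTSF1 partner protein. Uncleaved targets were then sequenced and normalised to depth and to weakly complementary targets. Data from three trials were pooled, with k3 capped at 0.0001 min^-1, and a burst-and-steady-state fit yielded the pre-steady-state cleavage rate.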

[2] = tested on: EfPiwi piRISC loaded with L1MC piRNA (26 nt); assay: pre-steady-state target cleavage rate (min^-1); guide: L1MC piRNA 5'p-UAACUAAAUACUAUGCAAGCUGUAGG; MIWI and MILI are mouse PIWI proteins and EfPiwi is from a freshwater sponge; tags in brackets are library labels; higher = faster piRNA-guided slicing of the target
Outline: as §1

[3] = auxiliary factor: none (no GTSF1)
[4] = auxiliary factor: 500 nM Ephydatia muelleri Gtsf1
[5] = auxiliary factor: 500 nM mouse GTSF1
[6] = auxiliary factor: none (no Gtsf1)

Sequence | pre-steady-state target cleavage rate [1, 3] | pre-steady-state target cleavage rate [2, 4] | pre-steady-state target cleavage rate [1, 5] | pre-steady-state target cleavage rate [2, 6]
UCCUGGAUGUCGAUCCAUACUAUUUAGUUA | 0.000188 ± 0.032 | 0.000414 ± 0.016 |  | 
UCCUGCUACAGCUUGCAUAGUAUUUAGUUU [g2:g25:cont:t1U] |  | 0.158 ± 0.042 | 0.315 ± 0.022 | 
UCCUGGAACAGCUAGCAUAGUAUUUAGAUA | 0.00217 ± 0.0034 |  |  | 0.00045 ± 0.016
UCCUCCUACAGCUUGCAUAGUAUUUCAGUUA |  | 0.00437 ± 0.0022 | 0.463 ± 0.073 | 
UCCUGGAUCAGCUUGCAUAGUAAUUUGUUA | 0.00163 ± 0.0051 | 0.00366 ± 0.002 |  | 
UCCUGGAUCAGCUAGCAUAGUAAUUAGUUA | 0.00502 ± 0.0022 |  | 0.152 ± 0.015 | 0.000531 ± 0.012
UCCUGGAACAGCUUGCUUAGUAUUUAGAAA | 0.00226 ± 0.0031 | 0.00132 ± 0.0043 | 0.142 ± 0.029 | 
UCCUCCUACAGCUUGCAUACUAUUUUGUUA | 0.00156 ± 0.0032 | 0.00468 ± 0.0034 |  | 
UCCUGGAUGUCCUUGCAUAGUAUUUAGUGA | 0.00382 ± 0.0024 | 0.00229 ± 0.0029 | 0.0966 ± 0.018 | 
UCCUGGAUGAGCUUGCAUAGAAUUUAGUAA | 0.00131 ± 0.0041 | 0.00272 ± 0.0027 | 0.0264 ± 0.011 | 
UCCUGGUUCAGCUUGCAAAGUAUUUAGUUA | 0.0176 ± 0.0038 | 0.0681 ± 0.019 | 0.137 ± 0.018 | 
UCCUCCAUCAGCUUGCAUAGUAUUUAGUAA | 0.00315 ± 0.0022 | 0.00678 ± 0.003 | 0.165 ± 0.024 | 
UCCUGCUACAGGUUGCAUAGUAUUUAGUUA | 0.013 ± 0.0028 |  | 0.246 ± 0.011 | 0.000964 ± 0.0087
UCCUGGAUGAGCUUGGAUAGAAUUUAGUUA | 0.00155 ± 0.0048 | 0.000536 ± 0.0092 | 0.0131 ± 0.0067 | 
UCCUGCAACUGCUUGCAUAGUAUUUAGUUA | 0.00581 ± 0.0026 | 0.0198 ± 0.0044 | 0.322 ± 0.025 | 
UCCUCCUACAGCUUGCAUAGUAUUUUGUUA | 0.0036 ± 0.0022 | 0.00791 ± 0.0033 | 0.177 ± 0.023 | 
UCCUGGAUGUCCUUGAAUAGUAUUUAGUUA | 0.011 ± 0.0029 | 0.000896 ± 0.0038 | 0.122 ± 0.023 | 
UCCUGGAUGUGCAUGCAAAGUAUUUAGUUA | 0.00933 ± 0.0024 | 0.000478 ± 0.011 | 0.0175 ± 0.0048 | 
UCCUCCUACAGCUUGCAUAGUAUUUAGUGUA | 0.00287 ± 0.0034 | 0.00735 ± 0.0033 |  | 
UCCUGCUACUGCUUGCUUAGUAUUUAGUUA | 0.00589 ± 0.002 | 0.0076 ± 0.0022 | 0.202 ± 0.022 | 
UCCUGGAUGUCCUUGCAUAGUAGUUAGUUA | 0.00421 ± 0.002 | 0.00555 ± 0.0031 | 0.13 ± 0.036 | 
UCCUGCUACAGCUUGCAUAGUUAAUAGUUA | 0.00196 ± 0.0034 | 0.00347 ± 0.0032 | 0.0263 ± 0.0097 | 
UCCUGGAUCAGCUUGGAUAGUAUUUAGUAA | 0.00324 ± 0.0026 | 0.00463 ± 0.0023 | 0.166 ± 0.019 | 
UCCUGGAUGAGCUUGCAUAGUAUUUGGUUA | 0.00663 ± 0.0031 | 0.00713 ± 0.002 | 0.203 ± 0.025 | 
UCCUGGUACUGCUUGGAUAGUAUUUAGUUA | 0.00767 ± 0.0042 | 0.00193 ± 0.0052 | 0.179 ± 0.029 | 
UCCUCCUACAGCUUGCAAAGAAUUUAGUUA | 0.0022 ± 0.0027 |  | 0.0165 ± 0.0051 | 0.000641 ± 0.0083

An excerpt of these results, field by field.
UCCUGCUACUGCUUGCUUAGUAUUUAGUUA
  pre-steady-state target cleavage rate [1, 3] = 0.00589 ± 0.002; pre-steady-state target cleavage rate [2, 4] = 0.0076 ± 0.0022; pre-steady-state target cleavage rate [1, 5] = 0.202 ± 0.022
UCCUGGAUGUCCUUGCAUAGUAGUUAGUUA
  pre-steady-state target cleavage rate [1, 3] = 0.00421 ± 0.002; pre-steady-state target cleavage rate [2, 4] = 0.00555 ± 0.0031; pre-steady-state target cleavage rate [1, 5] = 0.13 ± 0.036
